Assay [1] deals with MIA PaCa-2 parental. In words: parental cell viability relative to untreated parental control; higher = more surviving cells. The conditions noted are these: treatment time: 9 days.
In assay [2] the test system is MIA PaCa-2 persister. The experiment in a line: persister cell viability relative to untreated persister control; higher = more surviving persister cells. To be noted: treatment time: 9 days; cell state: persister (100 nM gemcitabine + 100 nM Torin1).

Here are results for 14 compounds from the supplement of paper PMC9671908.

Structures can show the parent of a compound that is named as a salt. The list shows a part of the results. Single values are uncertain, as repeats are few or missing.

In the case of `CN(C)CC[C@H](CSc1ccccc1)Nc1ccc(S(=O)(=O)NC(=O)c2ccc(N3CCN(Cc4ccccc4-c4ccc(Cl)cc4)CC3)cc2)cc1[N+](=O)[O-]` (inhibitor concentration: 3µM), in assay [1], the parental cell viability stood at 98%. Further, the persister cell viability in assay [2] turned out to be 25%.
For `CCCS(=O)(=O)Nc1ccc(F)c(C(=O)c2c[nH]c3ncc(-c4ccc(Cl)cc4)cc23)c1F` (inhibitor concentration: 10µM) the same measures were 103% and 105%.
Regarding `O=C(N[C@@H](C1CC1)C(F)(F)F)c1cc(-c2cnn3cc(-c4ccc(F)cc4)cnc23)cs1` (inhibitor concentration: 20µM), the parental cell viability in assay [1] stood at 77.5%. Further, the persister cell viability in assay [2] was determined as 20%.
For `CC(C)C[C@H](NC(=O)[C@H](Cc1ccccc1)NC(=O)c1cnccn1)B(O)O` [Bortezomib] (inhibitor concentration: 1nM) the same measures were 100% and 105%.
Turning to `CN(CCOc1ccc(CC2SC(=O)NC2=O)cc1)c1ccccn1` (stereo not drawn) [Rosiglitazone maleate] (inhibitor concentration: 3µM), in assay [1], the parental cell viability was determined as 102%. The persister cell viability in assay [2] was found to be 95.5%.
For `Cc1cc2c(C(N)=O)cccc2n1-c1nc2c(c(NCc3ccccc3)n1)COCC2` (inhibitor concentration: 300nM) the same measures were 20% and 50%.
For `CC(C)[C@H](NC(=O)[C@H](CCC(=O)O)NC(=O)[C@H](C)NC(=O)OC(C)(C)C)C(=O)N[C@H](C=O)CC(=O)O` [Boc-AEVD-CHO (trifluoroacetate-salt)] (inhibitor concentration: 10µM) the same measures were 102% and 95.5%.
For `CN1c2ccc([N+](=O)[O-])cc2N=C(c2ccc(C(=O)O)cc2)c2cc3c(cc21)C(C)(C)CCC3(C)C` (inhibitor concentration: 10µM) the same measures were 60% and 100%.
Consider `CCN(c1cc(-c2ccc(CN3CCOCC3)cc2)cc(C(=O)NCc2c(C)cc(C)[nH]c2=O)c1C)C1CCOCC1` (inhibitor concentration: 30µM), for which the parental cell viability in assay [1] amounted to 94%. For the same compound, the persister cell viability in assay [2] is 108%.
For `CCOC(=O)C1=C(N)Oc2ccc(Br)cc2C1C(C#N)C(=O)OCC` (stereo not drawn) (inhibitor concentration: 10µM) the same measures were 99.5% and 98%.
For `CC1(C)CCC(CN2CCN(c3ccc(C(=O)NS(=O)(=O)c4ccc(NCC5CCOCC5)c([N+](=O)[O-])c4)c(Oc4cnc5[nH]ccc5c4)c3)CC2)=C(c2ccc(Cl)cc2)C1` (inhibitor concentration: 3µM) the same measures were 104% and 98%.
For `O=C(Nc1ccc(Cl)cc1)c1cc2ccccc2cc1OP(=O)(O)O` (inhibitor concentration: 1µM) the same measures were 92% and 103%.
Regarding `N[C@@H]1CCCN(c2c(Br)cnc3[nH]cc(NC(=O)C4CC4)c23)C1` (inhibitor concentration: 100nM), the parental cell viability in assay [1] came out at 60%. For the same compound, in assay [2], the persister cell viability worked out at 25%.
For `CCC(C)(C)C(=O)N(O)Cc1ccccc1` (inhibitor concentration: 30µM) the same measures were 100% and 97.5%.
